In PubChem BioAssay AID276 (DTP/NCI, 2004) one finds T/C and survivor count data, which are given here for three compounds.

For this assay, the system named is B6C3F1 mice, Lewis lung carcinoma iv, survival T/C. The assay is described as follows: NCI In Vivo Anticancer Drug Screen. Data for tumor model Lewis Lung Carcinoma (intravenous) in B6C3F1 mice. As to conditions: T/C endpoint: median survival time, higher T/C = longer survival. On the procedure:
The antitumor activity of compounds was measured in mice bearing transplantable tumors. Survival or tumor size were measured and the results are expressed as the measurement made in the treated group (T) divided by the measurement made in the vehicle treated control group (C). The tumor model used in this assay is Lewis Lung Carcinoma (intravenous) in B6C3F1 mice

[1] abbreviates: dose: 50.0 mg/kg/injection, schedule: Q01DX009 (ip), vehicle: distilled water + Tween-80.
The mark [2] stands for this setting: dose: 200.0 mg/kg/injection, schedule: Q01DX001 (ip), vehicle: water.
Where [3] appears, read: dose: 400.0 mg/kg/injection, schedule: Q01DX001 (ip), vehicle: water.

The list is a part of this screen's results and no random one: it gathers some chemical classes. Other doses and runs of a compound may be missing. T/C: endpoint of the treated group in % of that of the vehicle group. Some entries give survivors of the animals treated and no T/C: the source files T/C as zero there, which appears to mark a toxic dose or a test without result, not a measured value. Some survivor counts are full or nearly so, which does not show that the dose was tolerated: survival well below the control is almost never listed, so the zero probably covers shortened survival too. Counts of survivors are from the toxicity check (mostly the fifth day) where no day follows; animals may have died later. Schedules are NCI's codes, taken here to give the interval after Q, in days (D) or hours (H), and the number of doses after X. Some entries were tested several times; their values stand side by side, smallest first. For survival time, the PubChem record calls one and a half times the control and up active, and a quarter to a half above the control has no call in these data; cut-offs in other NCI protocols can differ. Some T/C values carry the count of animals alive at the toxicity check (mostly the fifth day); where neither a count nor a note follows, no animal had died by that day.

For the compound `O=NN(CCSCCCl)C(=O)NC1CCCCC1`, the T/C is, setting by setting: (dose: 0.19 mg/kg/injection, schedule: Q01DX009 (ip), vehicle: saline with Tween-80) 104 % of control; (dose: 0.39 mg/kg/injection, schedule: Q01DX009 (ip), vehicle: saline with Tween-80) 104 % of control; (dose: 0.78 mg/kg/injection, schedule: Q01DX009 (ip), vehicle: saline with Tween-80) 105 % of control; (dose: 1.56 mg/kg/injection, schedule: Q01DX009 (ip), vehicle: saline with Tween-80) 110 % of control; (dose: 3.12 mg/kg/injection, schedule: Q01DX009 (ip), vehicle: saline with Tween-80) 106 % of control; (dose: 6.25 mg/kg/injection, schedule: Q01DX009 (ip), vehicle: saline with Tween-80) 105 % of control.
In the case of `NC1CCCCC1.NP(=O)(O)N(CCCl)CCCl`, the T/C by setting is: (dose: 6.25 mg/kg/injection, schedule: Q01DX009 (ip), vehicle: distilled water + Tween-80) 105 [9 of 10 alive] and 121 % of control; (dose: 12.5 mg/kg/injection, schedule: Q01DX009 (ip), vehicle: distilled water + Tween-80) 102 [9 of 10 alive] and 126 % of control; (dose: 25.0 mg/kg/injection, schedule: Q01DX001 (ip), vehicle: water) 113 % of control; (dose: 25.0 mg/kg/injection, schedule: Q01DX009 (ip), vehicle: distilled water + Tween-80) 110 [9 of 10 alive] and 117 % of control; (dose: 50.0 mg/kg/injection, schedule: Q01DX001 (ip), vehicle: water) 100 and 128 % of control; under setting [1], 133 % of control. Moreover, the T/C was 125, 140, 154 % of control (dose: 100.0 mg/kg/injection, schedule: Q01DX001 (ip), vehicle: water); 108 and 142 % of control under setting [2]; 196 % of control under setting [3]. Further, the survivor count was 10 of 10 under setting [1]; 10 of 10 (dose: 100.0 mg/kg/injection, schedule: Q01DX009 (ip), vehicle: distilled water + Tween-80); 9 of 10 under setting [2]; 0 of 10 and 10 of 10 under setting [3]; 0 of 10 and 10 of 10 (dose: 800.0 mg/kg/injection, schedule: Q01DX001 (ip), vehicle: water).
As for `ClCCN(CCCl)c1ccccc1`, the T/C (dose: 3.12 mg/kg/injection, schedule: Q01DX009 (ip), vehicle: Klucel (hydroxypropylcellulose) (HPC)) is 103 % of control; the T/C (dose: 6.25 mg/kg/injection, schedule: Q01DX009 (ip), vehicle: Klucel (hydroxypropylcellulose) (HPC)) is 115 % of control; the T/C (dose: 12.5 mg/kg/injection, schedule: Q01DX009 (ip), vehicle: Klucel (hydroxypropylcellulose) (HPC)) is 135 % of control; the T/C (dose: 25.0 mg/kg/injection, schedule: Q01DX009 (ip), vehicle: Klucel (hydroxypropylcellulose) (HPC)) is 130 % of control. Besides, the survivor count by setting is: (dose: 50.0 mg/kg/injection, schedule: Q01DX009 (ip), vehicle: Klucel (hydroxypropylcellulose) (HPC)) 10 of 10; (dose: 100.0 mg/kg/injection, schedule: Q01DX009 (ip), vehicle: Klucel (hydroxypropylcellulose) (HPC)) 2 of 10.
